These results are taken from PubChem BioAssay AID445 (National Center for Advancing Translational Sciences (NCATS), 2006).

This experiment can be described thus: IkB Signaling. Conditions: ABC-DLBCL IkBa-CBG/CBR dual luciferase ratio (green luciferase fused to IkBa over red control in OCI-Ly3 lymphoma cells), 4 h. An outline of the steps: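 In this assay, an IκBα–CBG68 fusion accumulates when IKK-driven degradation is blocked; native CBR normalizes for cell number. OCI-Ly3 cells were treated 4 h with compound and doxycycline, then green and red light read after Chroma-Glo addition.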
Setting [1] is: measured here: control luc red channel unless noted.
Where [2] appears, read: measured here: IkB-luc green channel.
[3] abbreviates: measured here: control luc red channel.

SMILES strings stand for the structures. Several values for one entry are separate records, joined by “and”; a condition that tells them apart may be missing. Equal entries are not always repeated. The list shows a part of the results. Shown are side measurements of this screen, not its main read-out; they come without a call. The list favours compounds with an active or inconclusive main result. Words in brackets tell the shape of the fitted curve; partial curves, single points and poor fits give uncertain potencies.

In the case of `CCN1C(=O)c2ccccc2Sc2ccc(NC(=O)Nc3ccccc3OC)cc21`, the AC50 (commonly the midpoint of the concentration-response curve, whichever way the signal moves) under setting [1] is 25.1 µM [falling, partial curve].

Regarding `CC(=O)Nc1coc2ccc(Br)cc12`, the AC50 under setting [1] is 10 µM [falling, partial curve].

Turning to `CC1CCN(C(c2ccc(F)cc2)c2sc3nc(-c4ccco4)nn3c2O)CC1` (centres undefined), the AC50 under setting [1] is 39.8 µM [falling, single point].

On to `CCOc1ccc(-c2cc(CCCC(=O)NCCCOC)no2)cc1`, for which, under setting [1], the AC50 was 12.6 µM [falling, partial curve].

In the case of `COc1ccccc1NC(=O)CSc1nnc(COc2ccc(Cl)cc2)n1Cc1ccco1`, the AC50 under setting [1] was 6.31 µM [falling, partial curve].

Regarding `CCc1ccc(-n2c(N3CCN(c4ccc(F)cc4)CC3)nc3ccccc3c2=O)cc1`, the AC50 under setting [1] was 10 µM [falling, partial curve].

`CSc1ccc(-c2c(C#N)c(N)nc3c2CCCC3)cc1`: the AC50 under setting [1] was 25.1 µM [falling, partial curve].

In the case of `CCCCOc1ccc(-c2c(C#N)c(N)nc(SCC(N)=O)c2C#N)cc1`, the AC50 under setting [1] was 25.1 µM [falling, partial curve].

Consider `COc1ccc(NC(=O)C(NC(=O)/C=C\c2ccc3c(c2)OCO3)c2ccc(C)cc2)cc1` (centres undefined), for which the AC50 under setting [1] was 1.26 µM [rising, full curve, poor fit].

Turning to `CCOC(=O)c1c(NC(=O)CN2CCCCC2)sc2c1CCCC2O` (centres undefined), the AC50 under setting [1] is 31.6 µM [falling, partial curve].

On to `Cc1noc(C)c1S(=O)(=O)N(CC(=O)NCc1ccccc1)c1ccc(C(C)C)cc1`, for which the half-maximal activity concentration (AC50) under setting [1] was 15.8 µM [falling, partial curve, poor fit].

Consider `COc1ccc(-c2nc(SCC(=O)NC3CCCC3)c(-c3ccc(F)cc3)[nH]2)cc1OC`, for which the AC50 under setting [1] is 20 µM [falling, partial curve].

Consider `COc1ccc(NC(=O)Cn2c(=O)c3cccn3c3ccccc32)cc1`, for which the AC50 under setting [1] was 12.6 µM [falling, partial curve].

Regarding `CCCCN(C)S(=O)(=O)c1ccc(C(=O)Nc2sc3c(c2C(=O)OCC)CCN(C(C)C)C3)cc1`, the AC50 under setting [1] was 31.6 µM [falling, single point].

`CCSc1nc(-c2ccccc2)nc2c1Cc1c(CO)cnc(C)c1O2`: under setting [1], the AC50 is 7.94 µM [rising, single point].

Take `CCOC(=O)C1CCN(C(=O)C2CCN(S(=O)(=O)c3c(C)noc3/C=C/c3ccc(C)cc3)CC2)CC1`: the AC50 under setting [1] was 0.00631 µM [falling, full curve, poor fit].

Regarding `CC(=O)Nc1nc(COc2ccccc2)cs1`, under setting [1], the AC50 is 7.94 µM [falling, partial curve].

Regarding `CCCC1=Nc2cc(C(=O)NCc3ccccc3)ccc2Sc2ccccc21`, the AC50 under setting [1] is 6.31 µM [rising, single point] [measured here: IkB-luc green channel].

With `CC/C(=C(\c1ccccc1)c1ccc(OCCN(C)C)cc1)c1ccccc1`, the AC50 under setting [1] is 39.8 µM [falling, partial curve] and 15.8 µM [falling, partial curve].

Turning to `COc1ccc(OC)c(NC(=O)CSc2nnnn2-c2ccc3c(c2)OCO3)c1`, under setting [1], the AC50 was 3.16 µM [falling, full curve, poor fit].

Turning to `CCc1oc2ccccc2c1C(=O)c1cc(Br)c(O)c(Br)c1`, the AC50 under setting [1] was 12.6 µM [falling, partial curve].

Turning to `Cc1cccc(C(=O)N2CCc3cc(CNC(=O)c4ccco4)ccc32)c1`, the AC50 under setting [1] is 31.6 µM [falling, partial curve].

As to `COc1ccccc1CNc1nccn(-c2ccc(F)cc2)c1=O`, the AC50 under setting [1] is 10 µM [falling, partial curve].

For the compound `COC(=O)CN1C(=O)C(O)(c2c(C)[nH]c3ccccc23)c2ccccc21` (centres undefined), the AC50 under setting [1] was 7.94 µM [rising, partial curve].

Take `Cc1csc2nc(COc3ccc(NC(=O)c4ccccc4F)cc3)cc(=O)n12`: under setting [1], the half-maximal activity concentration (AC50) was 39.8 µM [falling, single point].

Take `O=C(CSC1=Nc2ccccc2C2=NC(Cc3ccccc3)C(=O)N12)Nc1cccc(Cl)c1` (centres undefined): the AC50 under setting [1] is 39.8 µM [falling, single point].

Regarding `CCOC(=O)c1c(-c2ccccc2)oc2ccc(NS(=O)(=O)c3ccc(C)cc3)cc12`, the AC50 under setting [1] is 39.8 µM [falling, single point].

As for `Cc1ccnc(NC(c2cccc(O)c2)c2ccc3ccc(C)nc3c2O)c1` (centres undefined), the AC50 is 25.1 µM [rising, single point] under setting [2] and 12.6 µM [falling, partial curve] under setting [3].

On to `COc1cc(C(c2sc3nc(C)nn3c2O)N2CC(C)OC(C)C2)cc(OC)c1OC` (centres undefined), for which the AC50 under setting [1] is 15.8 µM [falling, partial curve].

In the case of `O=C(Nc1cc(F)ccc1F)C1CCN(C(=O)c2cnn(-c3ccccc3)c2-n2cccc2)CC1`, the AC50 under setting [1] is 25.1 µM [falling, partial curve].

On to `COc1ccc(Cl)c2sc(NC(=O)c3ccc(S(=O)(=O)N4CCCC4)cc3)nc12`, for which the AC50 under setting [1] is 3.16 µM [falling, partial curve].

Turning to `COc1ccc(OC)c(C2CC(=O)Nc3c2c(=O)n(C)c2ncnn32)c1` (centres undefined), under setting [1], the AC50 was 25.1 µM [rising, partial curve, poor fit].

With `Cc1ccc(C)c(CN2CCCN(Cc3ccccc3C)S2(=O)=O)c1`, the AC50 under setting [1] was 10 µM [falling, partial curve].

With `Cc1cc(C)cc(NC(=O)CN2C(=O)c3ccccc3Sc3ccc(C(=O)N4CCCC4)cc32)c1`, under setting [1], the AC50 was 12.6 µM [falling, partial curve].

Take `O=C(CN1C(=O)CCc2cc(Br)ccc21)Nc1ccc(OC(F)(F)F)cc1`: under setting [1], the AC50 was 7.94 µM [falling, full curve].

With `CCOC(=O)c1ccc(Nc2c(-c3ccc(N(C)C)cc3)nc3nc[nH]n23)cc1`, the AC50 is 39.8 µM [rising, single point] under setting [2] and 0.398 µM [falling, full curve] under setting [3].

As to `COc1ccccc1NC(=O)CSc1nnc2c(n1)[nH]c1ccccc12`, the AC50 under setting [1] is 12.6 µM [falling, partial curve].

As for `COc1ccc(CCn2c(-c3ccco3)nc3ccccc3c2=O)cc1OC`, the AC50 under setting [1] is 7.94 µM [falling, full curve, poor fit].

`C[C@@H](Cc1ccccc1)Nc1ncnc2c1ncn2[C@@H]1O[C@@H](CO)[C@H](O)[C@@H]1O`: the AC50 under setting [1] was 1.58 µM [rising, partial curve, poor fit] [measured here: IkB-luc green channel].

Take `CCOC(=O)c1c(C)oc2ccc(N(C(=O)c3ccncc3)S(=O)(=O)c3ccc(F)cc3C)cc12`: the AC50 under setting [1] is 15.8 µM [falling, partial curve].

For `CC(C)CCNC(=O)CCCn1c(=O)c2cccn2c2ccccc21`, the AC50 under setting [1] was 12.6 µM [falling, partial curve].

On to `Cc1cccc(CS(=O)(=O)Cc2ccc(C(=O)NCc3ccc(F)cc3)o2)c1`, for which the AC50 under setting [1] is 12.6 µM [falling, single point].

In the case of `COc1ccccc1N1CCN(S(=O)(=O)c2cc(C(=O)Nc3ccc(Oc4ccccc4)cc3)ccc2F)CC1`, the AC50 under setting [1] was 7.94 µM [falling, full curve].

Consider `COc1cccc(NC(=O)c2cnc(SCC(=O)N3CCCc4ccccc43)n(C)c2=O)c1`, for which the AC50 runs as follows: under setting [2], 39.8 µM [rising, single point]; under setting [3], 20 µM [falling, partial curve].

On to `COC(=O)c1ccccc1NC(=O)c1cc(OC)cc(OC)c1`, for which the AC50 under setting [1] was 7.94 µM [falling, partial curve].

As for `CCc1ccccc1-n1c(SCC(=O)Nc2ccc(C)cc2)nc2n[nH]c(C)c2c1=N`, the AC50 under setting [1] was 15.8 µM [falling, partial curve].

Take `O=C1Nc2ccccc2C12OCC(COc1ccc(Cl)cc1)O2` (centres undefined): the AC50 under setting [1] was 12.6 µM [falling, partial curve].

Regarding `CCc1cccc(NC(=O)Cn2c(-c3ccc(F)cc3)cc(C(C)=O)c2C)c1`, the AC50 under setting [1] was 39.8 µM [falling, single point].

Regarding `O=C(c1ccc2c(c1)N(Cc1ccccc1Cl)C(=O)c1ccccc1S2)N1CCCC1`, the AC50 under setting [1] was 25.1 µM [falling, partial curve].

Take `CC(C)(C)c1csc(NC(=O)c2ccc(Cl)s2)n1`: the AC50 under setting [1] was 7.94 µM [falling, full curve].

Consider `Cc1ccccc1CNC(=O)CN1CCSc2ccccc21`, for which the AC50 under setting [1] was 25.1 µM [falling, partial curve].

`COc1ccc(NC(=O)CN2CCCN(Cc3ccccc3)S2(=O)=O)cc1`: the AC50 under setting [1] is 25.1 µM [falling, single point].

For `Cc1ccc(NC(=O)C2CCN(S(=O)(=O)c3ccc4c(c3)CCCC(=O)N4)CC2)c(Br)c1`, the AC50 under setting [1] was 10 µM [falling, partial curve].

For `CCCCOC(=O)c1ccc(NC(=O)c2ccc3c(c2)CCCN3S(C)(=O)=O)cc1`, the AC50 under setting [1] was 25.1 µM [falling, single point].

As to `CC(C)COc1ccc(-c2nnc(-c3ccco3)o2)cc1`, the AC50 under setting [1] is 39.8 µM [falling, single point].

Take `O=C(CSc1nnc(CNC(=O)c2ccccc2)n1-c1ccc(F)cc1)Nc1ccccc1F`: under setting [1], the AC50 was 10 µM [falling, partial curve].

In the case of `CCCCOc1ccc(C(=O)Nc2sc3c(c2C(=O)OCC)CCCCC3)cc1`, under setting [1], the AC50 is 31.6 µM [falling, single point].

With `Cc1nc(C)n(CC(O)COc2ccc3cc(Br)ccc3c2)n1` (centres undefined), the AC50 under setting [1] is 15.8 µM [falling, partial curve].

`COc1ccc(Nc2ncc(C(=O)Nc3ccc(F)cc3F)c3ccccc23)cc1`: the AC50 under setting [1] was 20 µM [falling, partial curve].

In the case of `CCN(CC)C(=O)Cn1cc(SCC(=O)Nc2cc(OC)ccc2OC)c2ccccc21`, the AC50 under setting [1] is 15.8 µM [falling, partial curve].

As for `CC1(C)Cc2cccc(OCC(=O)Nc3ccccc3N3CCOCC3)c2O1`, under setting [1], the AC50 was 10 µM [falling, partial curve].
